Results taken from the supplement of paper PMC10849652.
Some of the results follow.

Amino acid sequences for entries named in this document (tags omitted). A change or cut given only in a name is not applied to a line headed by its entry.
UniProt Q9H019: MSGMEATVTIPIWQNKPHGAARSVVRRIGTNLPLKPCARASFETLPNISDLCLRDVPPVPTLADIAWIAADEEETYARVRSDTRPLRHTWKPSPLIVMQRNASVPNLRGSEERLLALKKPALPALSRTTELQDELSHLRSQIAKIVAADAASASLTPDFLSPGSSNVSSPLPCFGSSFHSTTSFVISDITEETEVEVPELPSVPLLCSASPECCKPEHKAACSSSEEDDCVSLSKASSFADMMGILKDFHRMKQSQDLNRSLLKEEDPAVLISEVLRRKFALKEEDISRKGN
UniProt P00403, whole entry, looked up: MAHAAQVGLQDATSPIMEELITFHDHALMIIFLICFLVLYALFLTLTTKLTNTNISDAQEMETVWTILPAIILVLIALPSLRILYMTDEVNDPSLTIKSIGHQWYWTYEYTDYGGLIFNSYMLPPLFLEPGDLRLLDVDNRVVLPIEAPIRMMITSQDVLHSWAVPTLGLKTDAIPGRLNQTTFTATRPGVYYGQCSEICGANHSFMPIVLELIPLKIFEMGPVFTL
UniProt Q9HD23: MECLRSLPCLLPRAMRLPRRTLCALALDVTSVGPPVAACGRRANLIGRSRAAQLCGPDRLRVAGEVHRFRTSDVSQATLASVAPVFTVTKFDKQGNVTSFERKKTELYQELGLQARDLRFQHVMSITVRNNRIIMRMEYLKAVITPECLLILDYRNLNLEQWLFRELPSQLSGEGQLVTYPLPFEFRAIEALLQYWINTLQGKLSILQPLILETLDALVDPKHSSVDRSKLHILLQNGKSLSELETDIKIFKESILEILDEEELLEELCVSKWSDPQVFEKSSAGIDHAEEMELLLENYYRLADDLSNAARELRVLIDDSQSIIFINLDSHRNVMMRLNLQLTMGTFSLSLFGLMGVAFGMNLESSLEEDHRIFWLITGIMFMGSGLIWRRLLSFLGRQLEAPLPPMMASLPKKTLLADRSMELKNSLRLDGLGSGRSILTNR
UniProt P03886, whole entry, looked up: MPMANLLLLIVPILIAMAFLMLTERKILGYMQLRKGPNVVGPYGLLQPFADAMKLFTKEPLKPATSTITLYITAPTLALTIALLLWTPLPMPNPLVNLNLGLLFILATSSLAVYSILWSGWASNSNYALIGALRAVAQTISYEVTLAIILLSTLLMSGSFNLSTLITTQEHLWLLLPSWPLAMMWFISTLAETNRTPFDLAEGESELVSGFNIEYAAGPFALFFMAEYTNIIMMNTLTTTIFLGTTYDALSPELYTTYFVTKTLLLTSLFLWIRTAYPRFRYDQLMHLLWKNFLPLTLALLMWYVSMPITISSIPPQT
UniProt Q765P7: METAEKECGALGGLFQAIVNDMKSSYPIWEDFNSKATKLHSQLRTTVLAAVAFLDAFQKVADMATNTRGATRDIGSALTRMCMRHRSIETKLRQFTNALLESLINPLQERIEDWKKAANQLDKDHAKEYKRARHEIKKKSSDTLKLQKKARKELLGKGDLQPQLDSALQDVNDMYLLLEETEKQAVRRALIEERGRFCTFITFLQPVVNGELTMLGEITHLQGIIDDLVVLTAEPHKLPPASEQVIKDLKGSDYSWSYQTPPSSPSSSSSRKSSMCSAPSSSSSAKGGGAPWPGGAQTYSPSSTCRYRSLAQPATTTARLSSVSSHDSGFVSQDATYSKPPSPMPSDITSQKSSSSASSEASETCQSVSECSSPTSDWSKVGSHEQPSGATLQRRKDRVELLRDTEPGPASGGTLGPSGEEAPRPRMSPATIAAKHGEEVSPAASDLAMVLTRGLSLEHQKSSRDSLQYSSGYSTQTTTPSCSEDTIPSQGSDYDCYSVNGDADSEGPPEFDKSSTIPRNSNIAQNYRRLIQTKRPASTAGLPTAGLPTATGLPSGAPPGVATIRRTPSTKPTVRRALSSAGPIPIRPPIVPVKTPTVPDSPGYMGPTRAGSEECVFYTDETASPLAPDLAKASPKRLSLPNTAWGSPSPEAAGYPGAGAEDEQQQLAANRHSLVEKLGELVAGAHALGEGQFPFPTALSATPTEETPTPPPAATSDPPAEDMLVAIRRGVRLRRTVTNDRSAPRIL
UniProt Q13505: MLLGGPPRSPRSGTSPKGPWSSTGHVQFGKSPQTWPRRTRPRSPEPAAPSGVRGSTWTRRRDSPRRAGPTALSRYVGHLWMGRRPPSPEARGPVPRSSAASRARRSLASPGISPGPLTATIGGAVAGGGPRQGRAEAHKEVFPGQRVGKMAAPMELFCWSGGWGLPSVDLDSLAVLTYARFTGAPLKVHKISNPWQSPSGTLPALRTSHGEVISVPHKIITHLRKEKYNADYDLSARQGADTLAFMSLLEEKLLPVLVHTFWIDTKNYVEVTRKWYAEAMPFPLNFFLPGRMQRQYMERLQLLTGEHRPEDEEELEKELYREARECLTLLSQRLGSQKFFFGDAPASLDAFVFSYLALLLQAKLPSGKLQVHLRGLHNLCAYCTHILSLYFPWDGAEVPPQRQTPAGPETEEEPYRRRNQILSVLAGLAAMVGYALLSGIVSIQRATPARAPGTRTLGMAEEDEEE
UniProt Q9UBK8: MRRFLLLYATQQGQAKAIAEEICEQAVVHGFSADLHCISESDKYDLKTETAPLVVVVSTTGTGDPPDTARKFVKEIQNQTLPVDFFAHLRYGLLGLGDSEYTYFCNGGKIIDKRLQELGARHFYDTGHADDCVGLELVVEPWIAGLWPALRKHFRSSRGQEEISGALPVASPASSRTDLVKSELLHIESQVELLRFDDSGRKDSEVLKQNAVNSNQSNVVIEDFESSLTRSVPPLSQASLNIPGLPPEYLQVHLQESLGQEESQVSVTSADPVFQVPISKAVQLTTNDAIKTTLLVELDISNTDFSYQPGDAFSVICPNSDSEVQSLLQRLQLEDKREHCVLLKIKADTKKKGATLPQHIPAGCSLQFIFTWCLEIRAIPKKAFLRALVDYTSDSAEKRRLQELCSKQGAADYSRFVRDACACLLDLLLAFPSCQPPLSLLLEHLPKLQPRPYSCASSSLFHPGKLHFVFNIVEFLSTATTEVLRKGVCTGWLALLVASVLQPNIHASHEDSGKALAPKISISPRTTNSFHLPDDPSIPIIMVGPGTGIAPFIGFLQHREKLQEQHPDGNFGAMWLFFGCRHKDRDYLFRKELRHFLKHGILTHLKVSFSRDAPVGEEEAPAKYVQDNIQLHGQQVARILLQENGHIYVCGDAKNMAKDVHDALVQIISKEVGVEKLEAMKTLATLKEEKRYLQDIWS
UniProt Q86UE4: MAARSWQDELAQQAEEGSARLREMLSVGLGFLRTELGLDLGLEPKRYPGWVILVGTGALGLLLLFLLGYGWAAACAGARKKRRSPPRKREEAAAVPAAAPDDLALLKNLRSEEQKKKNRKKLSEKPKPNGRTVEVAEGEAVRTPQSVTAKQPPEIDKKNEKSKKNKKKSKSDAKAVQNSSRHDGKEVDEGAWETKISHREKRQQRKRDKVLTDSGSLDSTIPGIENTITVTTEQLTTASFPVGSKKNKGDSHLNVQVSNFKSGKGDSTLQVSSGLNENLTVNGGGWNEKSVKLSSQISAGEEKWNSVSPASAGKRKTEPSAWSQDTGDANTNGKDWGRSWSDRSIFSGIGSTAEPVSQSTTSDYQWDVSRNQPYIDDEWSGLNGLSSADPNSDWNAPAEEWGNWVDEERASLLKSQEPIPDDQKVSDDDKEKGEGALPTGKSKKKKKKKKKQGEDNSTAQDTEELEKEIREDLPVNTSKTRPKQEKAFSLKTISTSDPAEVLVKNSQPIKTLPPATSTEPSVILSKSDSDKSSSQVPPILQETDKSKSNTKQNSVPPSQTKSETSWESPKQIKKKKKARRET

Assays:
Test in all cases: log2 fold change, soluble protein after heating vs DMSO (PISA); higher = thermal stabilisation; K562 lysate, 10 uM; active = over 0.2 and 3.5 SD of the protein, either way, in both replicates (recomputed)
ibrutinib = compound: C=CC(=O)N1CCC[C@@H](n2nc(-c3ccc(Oc4ccccc4)cc3)c3c(N)ncnc32)C1 [ibrutinib]
Outline: (§1)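 Thermal stability, expressed as log-two fold change relative to solvent controls, is given from duplicates. Crude K562 extract in PBS pH 7.4 with 1 mM MgCl2, at 1 mg/mL protein, was treated with 10 μM compound for 30 min and heated in aliquots for 3 min across 48°C-58°C. After pooling, adjustment to 0.5% NP-40 at 4°C and centrifugation at 21,000xg for 90 min, supernatant protein was measured by TMTpro 16plex LC-MS/MS with channel sums equalised.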

[1] = compound: CC(=O)c1cnc2ccc(-c3cc(Cl)c(O)c(Cl)c3)nc2c1N[C@H]1CC[C@H](CN(C)C)CC1
Outline: as §1

ralimetinib = compound: CC(C)(C)Cn1c(N)nc2ccc(-c3[nH]c(C(C)(C)C)nc3-c3ccc(F)cc3)nc21 [ralimetinib]
Outline: as §1

[2] = compound: CC(C)(O)CC(=O)NCCn1ccc2ncnc(Nc3ccc(Oc4cccc(C(F)(F)F)c4)c(Cl)c3)c21
Outline: as §1

[3] = compound: CC(C)C1=C2N=C(C=C(N2N=C1)NCC3=CC=CC=C3)NCCCCCCN
Outline: as §1

[4] = compound: CC1=C(C(CC(=O)N1)C2=CC=C(C=C2)C(F)(F)F)C(=O)NC3=C(C=C4C(=C3)C=NN4)F
Outline: as §1

[5] = compound: CC1=C(C2=C(C=C1)C(=O)C3=CC=CC=C3N2CCCN)C
Outline: as §1

[6] = compound: CC1=C(C=C(C=C1)NC(=O)C2=CC(=CC=C2)C(C)(C)C#N)NC3=CC4=C(C=C3)N=CN(C4=O)C
Outline: as §1

[7] = compound: CC1=C(C=C(C=C1)NC(=O)C2=CC(=CC=C2)N(C)C)NC(=O)C3=CC=C(C=C3)O
Outline: as §1

[8] = compound: CC1=CC=C(C=C1)SC2=C3C=C(SC3=CN=C2)C(=O)N
Outline: as §1

vemurafenib = compound: CCCS(=O)(=O)Nc1ccc(F)c(C(=O)c2c[nH]c3ncc(-c4ccc(Cl)cc4)cc23)c1F [vemurafenib]
Outline: as §1

[9] = compound: CCCS(=O)(=O)Nc1ccc(F)c(C(=O)c2c[nH]c3ncc(Cl)cc23)c1F
Outline: as §1

barasertib = compound: CCN(CCCOc1ccc2c(Nc3cc(CC(=O)Nc4cccc(F)c4)[nH]n3)ncnc2c1)CCOP(=O)(O)O [barasertib]
Outline: as §1

[10] = compound: CC[C@@H]1C(=O)N(C)c2cnc(Nc3ccc(C(=O)NC4CCN(C)CC4)cc3OC)nc2N1C1CCCC1
Outline: as §1

volasertib = compound: CC[C@@H]1C(=O)N(C)c2cnc(Nc3ccc(C(=O)N[C@H]4CC[C@H](N5CCN(CC6CC6)CC5)CC4)cc3OC)nc2N1C(C)C [volasertib]
Outline: as §1

[11] = compound: CCn1c(C(=O)N(C2CC2)C2CC2)cc2c3c(ncn3C)c(Nc3cc(C)n(C)n3)nc21
Outline: as §1

[12] = compound: CCn1cc(-c2ccnc3[nH]c(-c4cccc(CN(C)C)c4)cc23)c(-c2ccc(NC(=O)N(C)C)cc2)n1
Outline: as §1

[13] = compound: CN1CCC(CNc2ccc3ncc(-c4cccc(OC(F)(F)F)c4)n3n2)CC1
Outline: as §1

saracatinib = compound: CN1CCN(CCOc2cc(OC3CCOCC3)c3c(Nc4c(Cl)ccc5c4OCO5)ncnc3c2)CC1 [saracatinib]
Outline: as §1

sotrastaurin = compound: CN1CCN(c2nc(C3=C(c4c[nH]c5ccccc45)C(=O)NC3=O)c3ccccc3n2)CC1 [sotrastaurin]
Outline: as §1

Measured: log2 fold change

MRPL33 (UniProt O75394)
inactive: ibrutinib -0.006 | [1] 0.018 | ralimetinib 0.03 | [2] -0.183 | [3] -0.022 | [4] -0.204 | [5] 0.01 | [6] -0.056 | [7] -0.128 | [8] 0.002 | vemurafenib -0.155 | [9] 0.064 | barasertib 0.082 | [10] -0.156 | volasertib -0.063 | [11] -0.13 | [12] 0.079 | [13] 0.036 | saracatinib 0.09 | sotrastaurin -0.121

MRPL42 (UniProt Q9Y6G3)
inactive: ibrutinib 0.061 | [1] 0.03 | ralimetinib 0.021 | [2] -0.087 | [3] -0.016 | [4] 0.07 | [5] -0.104 | [6] 0.048 | [7] 0.015 | [8] 0.038 | vemurafenib -0.018 | [9] 0.007 | barasertib -0.057 | [10] -0.119 | volasertib 0.015 | [11] -0.004 | [12] 0.015 | [13] 0.015 | saracatinib 0.009 | sotrastaurin 0.008

MRPL54 (UniProt Q6P161)
inactive: ibrutinib 0.024 | [1] 0.032 | ralimetinib 0.027 | [2] 0.002 | [3] -0.047 | [4] -0.033 | [5] 0.017 | [6] -0.017 | [7] -0.001 | [8] -0.005 | vemurafenib 0.011 | [9] -0.014 | barasertib -0.042 | [10] 0.064 | volasertib -0.006 | [11] 0.024 | [12] 0.082 | [13] -0.043 | saracatinib 0.022 | sotrastaurin 0.01

MTFR1L (UniProt Q9H019)
inactive: ibrutinib 0.119 | [1] -0.052 | ralimetinib 0.061 | [2] -0.019 | [3] 0.049 | [4] 0.084 | [5] -0.009 | [6] 0.08 | [7] 0.028 | [8] -0.048 | vemurafenib 0.019 | [9] 0.023 | barasertib -0.078 | [10] 0.062 | volasertib -0.066 | [11] 0.049 | [12] -0.184 | [13] 0.084 | saracatinib 0.028 | sotrastaurin 0.016

MT-CO2 (UniProt P00403)
inactive: ibrutinib 0.035 | [1] 0.018 | ralimetinib 0.051 | [2] -0.001 | [3] -0.039 | [4] -0.034 | [5] -0.049 | [6] 0 | [7] -0.017 | [8] 0.055 | vemurafenib -0.005 | [9] 0.055 | barasertib -0.105 | [10] -0.034 | volasertib -0.007 | [11] 0.005 | [12] 0.086 | [13] -0.065 | saracatinib 0.022 | sotrastaurin 0.007

MRS2 (UniProt Q9HD23)
inactive: ibrutinib 0.008 | [1] 0.008 | ralimetinib 0.045 | [2] -0.009 | [3] -0.042 | [4] -0.028 | [5] 0.011 | [6] -0.005 | [7] 0.02 | [8] -0.006 | vemurafenib -0.028 | [9] -0.005 | barasertib 0.01 | [10] -0.026 | volasertib 0.001 | [11] 0.015 | [12] 0.023 | [13] 0.074 | saracatinib 0.002 | sotrastaurin 0.037

MRPL44 (UniProt Q9H9J2)
inactive: ibrutinib 0.134 | [1] -0.068 | ralimetinib 0.018 | [2] -0.022 | [3] 0.018 | [4] -0.039 | [5] -0.045 | [6] -0.017 | [7] 0.051 | [8] 0.008 | vemurafenib 0.018 | [9] 0.033 | barasertib 0.122 | [10] -0.03 | volasertib -0.004 | [11] -0.039 | [12] -0.021 | [13] 0.025 | saracatinib -0.003 | sotrastaurin -0.075

MRPS27 isoform 2 (UniProt Q92552)
inactive: ibrutinib -0.015 | [1] -0.01 | ralimetinib 0.016 | [2] -0.004 | [3] 0.026 | [4] -0.041 | [5] -0.051 | [6] 0.031 | [7] 0.036 | [8] -0.002 | vemurafenib 0.053 | [9] 0.022 | barasertib -0.003 | [10] -0.092 | volasertib -0.034 | [11] 0.017 | [12] -0.148 | [13] 0.04 | saracatinib 0.013 | sotrastaurin 0.028

MT-ND1 (UniProt P03886)
inactive: ibrutinib 0.032 | [1] -0.006 | ralimetinib 0.061 | [2] -0.101 | [3] -0.052 | [4] 0.056 | [5] -0.007 | [6] 0.055 | [7] -0.005 | [8] 0.088 | vemurafenib -0.074 | [9] 0.012 | barasertib 0.056 | [10] -0.068 | volasertib -0.04 | [11] -0.096 | [12] -0.355 | [13] 0.066 | saracatinib 0.075 | sotrastaurin 0.038

Pulled one by one from the list above (2):
MT-ND1 (UniProt P03886)
inactive: ibrutinib 0.032 | [1] -0.006 | ralimetinib 0.061 | [2] -0.101 | [3] -0.052 | [4] 0.056 | [5] -0.007 | [6] 0.055 | [7] -0.005 | [8] 0.088 | vemurafenib -0.074 | [9] 0.012 | barasertib 0.056 | [10] -0.068 | volasertib -0.04 | [11] -0.096 | [12] -0.355 | [13] 0.066 | saracatinib 0.075 | sotrastaurin 0.038

MRPS27 isoform 2 (UniProt Q92552)
inactive: ibrutinib -0.015 | [1] -0.01 | ralimetinib 0.016 | [2] -0.004 | [3] 0.026 | [4] -0.041 | [5] -0.051 | [6] 0.031 | [7] 0.036 | [8] -0.002 | vemurafenib 0.053 | [9] 0.022 | barasertib -0.003 | [10] -0.092 | volasertib -0.034 | [11] 0.017 | [12] -0.148 | [13] 0.04 | saracatinib 0.013 | sotrastaurin 0.028

Next part.

MTSS2 (UniProt Q765P7)
inactive: ibrutinib 0.054 | [1] 0 | ralimetinib -0.026 | [2] -0.021 | [3] -0.025 | [4] 0.032 | [5] -0.067 | [6] -0.032 | [7] 0.028 | [8] 0.004 | vemurafenib 0.022 | [9] 0 | barasertib 0.047 | [10] 0.033 | volasertib 0.011 | [11] -0.021 | [12] -0.035 | [13] 0.009 | saracatinib 0.022 | sotrastaurin -0.042

MRPL43 isoform 4 (UniProt Q8N983)
inactive: ibrutinib 0.036 | [1] -0.037 | ralimetinib -0.031 | [2] -0.01 | [3] 0.011 | [4] 0.059 | [5] 0.008 | [6] -0.059 | [7] -0.004 | [8] -0.013 | vemurafenib -0.006 | [9] -0.014 | barasertib -0.04 | [10] -0.036 | volasertib -0.011 | [11] 0.08 | [12] -0.056 | [13] -0.059 | saracatinib 0 | sotrastaurin -0.073

MTX1 (UniProt Q13505)
inactive: ibrutinib 0.035 | [1] -0.015 | ralimetinib -0.041 | [2] 0.021 | [3] -0.01 | [4] 0.024 | [5] 0.009 | [6] 0.028 | [7] 0.012 | [8] -0.003 | vemurafenib 0.036 | [9] 0.011 | barasertib 0.057 | [10] 0.007 | volasertib -0.005 | [11] -0.039 | [12] -0.049 | [13] 0.06 | saracatinib -0.009 | sotrastaurin 0.006

MTRR isoform 1 (UniProt Q9UBK8)
inactive: ibrutinib 0.03 | [1] -0.081 | ralimetinib 0.004 | [2] -0.013 | [3] 0.002 | [4] -0.01 | [5] -0.009 | [6] 0.027 | [7] -0.045 | [8] 0.039 | vemurafenib 0.077 | [9] 0.067 | barasertib 0.015 | [10] 0.017 | volasertib -0.088 | [11] -0.023 | [12] 0.003 | [13] 0.019 | saracatinib 0.006 | sotrastaurin -0.036

MTDH (UniProt Q86UE4)
inactive: ibrutinib 0.012 | [1] -0.009 | ralimetinib 0.01 | [2] -0.015 | [3] 0.01 | [4] 0.006 | [5] -0.036 | [6] 0.007 | [7] 0.007 | [8] -0.018 | vemurafenib 0.009 | [9] -0.001 | barasertib -0.028 | [10] 0.029 | volasertib 0.017 | [11] -0.022 | [12] -0.043 | [13] 0.049 | saracatinib -0.001 | sotrastaurin 0.013

MRPL4 (UniProt Q9BYD3)
inactive: ibrutinib 0.042 | [1] -0.063 | ralimetinib 0.021 | [2] -0.029 | [3] 0.013 | [4] -0.018 | [5] -0.02 | [6] 0.006 | [7] -0.016 | [8] -0.013 | vemurafenib 0.022 | [9] 0.004 | barasertib -0.064 | [10] 0.057 | volasertib 0.037 | [11] -0.007 | [12] 0.176 | [13] -0.021 | saracatinib -0.014 | sotrastaurin -0.017

MRPS7 (UniProt Q9Y2R9)
inactive: ibrutinib 0.003 | [1] -0.004 | ralimetinib 0.019 | [2] -0.052 | [3] 0.063 | [4] 0.029 | [5] -0.071 | [6] 0.052 | [7] 0.048 | [8] 0.014 | vemurafenib -0.016 | [9] 0.01 | barasertib -0.009 | [10] 0.022 | volasertib -0.025 | [11] 0.022 | [12] 0.001 | [13] 0.01 | saracatinib 0.001 | sotrastaurin 0.022
